This experiment has as its target Heat shock protein 60 (UniProt P10809). Description: co-IP; 500 μg protein of total lysate of C2C12 cells transfected with pCMV6-Entry-HSPD1 (pcDNA3.1 as negative control); rabbit polyclonal anti-HSP60 (H-300) overnight at 4 °C, Sepharose A beads, washes with isotonic lysis buffer; blot with anti-PGC1α (ST1202).

The chains behind the UniProt entries cited, without tags or fusion partners. Residues count along the entry.
UniProt P10809, residues 27-573: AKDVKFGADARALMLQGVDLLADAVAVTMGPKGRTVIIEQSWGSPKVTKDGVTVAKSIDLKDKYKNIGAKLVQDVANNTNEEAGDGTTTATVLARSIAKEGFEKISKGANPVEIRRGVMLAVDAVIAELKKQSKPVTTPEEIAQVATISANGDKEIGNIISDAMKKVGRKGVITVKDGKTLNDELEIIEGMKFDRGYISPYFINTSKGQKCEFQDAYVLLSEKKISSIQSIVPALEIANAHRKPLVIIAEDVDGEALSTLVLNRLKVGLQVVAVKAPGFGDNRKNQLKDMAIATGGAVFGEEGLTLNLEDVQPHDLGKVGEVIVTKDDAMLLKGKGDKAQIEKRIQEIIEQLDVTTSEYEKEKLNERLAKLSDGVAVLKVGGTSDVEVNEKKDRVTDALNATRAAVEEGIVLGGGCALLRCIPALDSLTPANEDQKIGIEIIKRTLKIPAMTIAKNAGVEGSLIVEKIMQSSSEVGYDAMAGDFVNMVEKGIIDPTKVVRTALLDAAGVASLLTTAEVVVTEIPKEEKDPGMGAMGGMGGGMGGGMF

These are yes or no findings as the source states them, for the method shown. In cells and extracts the contact can be indirect. Some binding calls cover weakened binding; strength is not graded here.

B1: peroxisome proliferator-activated receptor gamma coactivator 1 alpha, isoform α1 (113 kDa) (protein, UniProt O70343 1-797)
chain: MAWDMCSQDSVWSDIECAALVGEDQPLCPDLPELDLSELDVNDLDTDSFLGGLKWCSDQSEIISNQYNNEPANIFEKIDEENEANLLAVLTETLDSLPVDEDGLPSFDALTDGAVTTDNEASPSSMPDGTPPPQEAEEPSLLKKLLLAPANTQLSYNECSGLSTQNHAANHTHRIRTNPAIVKTENSWSNKAKSICQQQKPQRRPCSELLKYLTTNDDPPHTKPTENRNSSRDKCASKKKSHTQPQSQHAQAKPTTLSLPLTPESPNDPKGSPFENKTIERTLSVELSGTAGLTPPTTPPHKANQDNPFKASPKLKPSCKTVVPPPTKRARYSECSGTQGSHSTKKGPEQSELYAQLSKSSGLSRGHEERKTKRPSLRLFGDHDYCQSLNSKTDILINISQELQDSRQLDFKDASCDWQGHICSSTDSGQCYLRETLEASKQVSPCSTRKQLQDQEIRAELNKHFGHPCQAVFDDKSDKTSELRDGDFSNEQFSKLPVFINSGLAMDGLFDDSEDESDKLSYPWDGTQPYSLFDVSPSCSSFNSPCRDSVSPPKSLFSQRPQRMRSRSRSFSRHRSCSRSPYSRSRSRSPGSRSSSRSCYYYESSHYRHRTHRNSPLYVRSRSRSPYSRRPRYDSYEAYEHERLKRDEYRKEHEKRESERAKQRERQKQKAIEERRVIYVGKIRPDTTRTELRDRFEVFGEIEECTVNLRDDGDSYGFITYRYTCDAFAALENGYTLRRSNETDFELYFCGRKQFFKSNYADLDTNSDDFDPASTKSKYDSLDFDSLLKEAQRSLRR
In the case of B1, the binding result was “binds”.

Values taken from paper PMC4728392.
